Construct, isoform or probe ends are uncertain for at least one entry.
Key:
BcWRKY33A [1] = test: competition with a labelled probe; details: 6% native gel, TGE buffer, pH and temperature not stated, recombinant protein
BcWRKY33A [2] = test: EMSA; details: Beyotime GS009 chemiluminescent EMSA kit, 6% native gel, TGE buffer, pH and temperature not stated, recombinant protein, label: biotin

AGAAAATTCAACGGAGAAAATTCAACGGAGAAAATTCAACGG (double strand) [Competitor 2]
binding result (BcWRKY33A [1]; unlabeled competitor vs Probe 2, Beyotime GS009 chemiluminescent EMSA kit): binds

AGAAAATTCAACGGAGAAAATTCAACGGAGAAAATTCAACGG (double strand) [Probe 2 (pBcMYB51-3 W-box)]
binding result (BcWRKY33A [2]): binds

ATGTTGACTAGTTATGTTGACTAGTT (double strand) [Competitor 1]
binding result (BcWRKY33A [1]; unlabeled competitor vs Probe 1, Beyotime GS009 chemiluminescent EMSA kit): binds

ATGTTGACTAGTTATGTTGACTAGTT (double strand) [Probe 1 (pBcMYB51-3 W-box)]
binding result (BcWRKY33A [2]): binds

From PMC9331318
